No constants are given. Whether binding was seen depends on the method and setting. In cells and extracts the contact can be indirect. Here binding means that the protein was enriched with, or labelled near, the bait; the list need not be complete.
B1: ECT4 (protein, UniProt A0A1P8AS03 1-605)
chain: MSTVAPPADQAADVLKKLSLDSKSRTLEIPEPTKKTGVYQYGAMDSNGQVPSFDRSLSPMLPSDALDPSVFYVPNVYQQPYYYGYGSDYTGYTNSESVDMTSGAYGENASLVYPQGYGYAAFPYSPATSPAPQLGGDGQLYGAQQYQYPFPLTASSGPFASSVPASTQSKLSTNKAANSASAGIPKGMNGSAPVKPLNQSALYGNSALGGGLAAGYQDPRYSYDGFYTPVSWHDGSNFSDVQRSVSGSGVASSYSKANNNVPATRNQNSSSNSHYTSMYQPASMTGYAAQGYYDRVSPNKSYGQYGSTVRSGMGYGSSGYGSRTNERGWLNTDNKYRSRGRGNSYFYGNENIDGLNELNRGPRAKGTKATEEVSSEEVKKQTFDESNTEETVTCVLPDREECNRDDFPVEYKDAKFFIIKSYSEDDVHKSIKYNVWASTPNGNKKLDAAYQEAQQKSSGCPVFLFFSVNASGQFIGLAEMKGPVDFNKNIEYWQQDKWTGSFPLKWHILKDVPNSLLKHITLEYNENKPVTNSRDTQEVKLEQGLKVVKIFKEHNSKTCILDDFSFYEARQKTILEKKAKQQQSQKQVWEGKTNDEKPGTVDSTM
B2: ORP2A, OSBP (OXYSTEROL BINDING PROTEIN)-RELATED PROTEIN (protein, UniProt Q940Y1 1-721)
chain: MRVKELHPLCCITLESPHGINSQSPEEPVTTALTRSRSLPAKSLTGGSESETVAGILYKWTNFGKGWRSRWFLLRNGILSYSKIRRPENLNLLSPDDDVRLIGDISGERLSRMDSCSGRRKQQKTVGIVHLKVSSFRESKSDDRKFYIFTATKTLHLRTDSITDRAAWLQALASTKCIFPLRSLNGDFSFIPPKDLSISTERLKKRLHEEGMNENLVKECEQIMLSEFSEMHGQVKLLHEERTNLLDALRQLEAANLEVGASGKHEFSSLGRGKYSECSTTASSDGKQEFEDVSEEDEPSFHDTKEFFNEPNIGSESNLAISGHTDIKRRTKLPDPAEKEKGVSLWSMIKDNVGKDLTRVCLPVYFNEPISSLQKCFEDLEYSYLLDRAYEHGKSGNGLLRALNVAAFAVSGYASTEGRHCKPFNPLLGETYEADFPEKGIRFFSEKVSHHPTVIACHCEGKGWKFWGDTNLRSKFWGRSIQVEPVGVLTLEFDDGEVFQWSKVTSTIYNIILGKLYCDHHGVMQIRGNRQYSCTLKFKEQSILERNPHQVNGFVEDVAGQKAATIFGKWDDSLYYVAGDGINKSKVSDPASNASLLWKRTKPPPNVTRYNLTSFAITLNELTPGLQEILPPTDSRLRPDQRHLENGEYEKANLEKQRLERRQRMSRQLQESGWRPRWFERQGESDTFKYTGGYWEARGHRNWDDCPDIFGEFTEELADAA
B3: NEDD1 (protein, UniProt B3H5K9 1-782)
chain: MMSNLVEPSWRLLAASGGDTVKLFDVSADSGDPCVLSYTPSPGCAVNSVKWNHTNLVVASTGEDKKISLWRKNGQSLGTVPVTGKDGGDSAEECLSAISFSKKGSRYICSGGTGQIVKIWDLQRKLCIKKLKGHTSTITGVMYNCKDEHLASVSVGGDLIVHNLASGARATELKDPNGQVLRLLDYSRSSRHLLVTAGDDGTVHLWDTTGRSPKMSWLKQHSAPTAGVCFSPSNEKIIASVGMDKKLYTYDSGSRRSSSCIAYEAPFSSLAFGDNGYILVAGTSNGRVVFYDIRGKPQPVTVLHAFSNSEDVTSLSWQTSKPVIVNEKNYTSEMALLGSTVEDSVVIPDPLPSTTPSASQSAMAPGSRGVSASTVNASSVEQTPNRNHLWPSGPLGRLHALRANDSYNDDMGVFSPIIDVSSVEKWADSEGYNNKDHLVVDNKPSSLLFPSSSKGYSFGDNGSKEHPIFDWKPSSTSKQDDPRAAFSSFGSITPTASSKSEDSALTPPEAWGGDKFSEKFNQLANEKFSDKFSHLHAPSRLAVSSTGASTSGSMFSSSRDFPLSHGQTNFANASLEFPRIRDFSSTFETSSTQTDNNLPSSPLFTKGITAPGNIDSLRLSPNFTRRFSTYAERISTTSSFSDGASLSLGGSPKIKKTGSETREEVLNHLLARPETVVATEAGAMPLMNQGGLKQSQTDQQQVMGSSNFTLQLFQRTLEGTLDSFQNSIHDDVRNLHIEILRQFHMHEMEMSKVLSSILENQAEQMKELKLLRKENQELRQRL

biological target: DCP1-TurboID-6xHis-3xFLAG (Arabidopsis); test: proximity labelling

binding | Binder
binds | B1
binds | B2
binds | B3

Reference: paper doi:10.1101/2022.06.03.494746
